Measurements as given in article PMC11323726.
These are yes or no findings as the source states them, for the method shown. Where a sequence is shown, tags or fusion partners need not be part of it.

By UniProt entry, the sequences of proteins in these tests, tags left out.
UniProt A0QT91: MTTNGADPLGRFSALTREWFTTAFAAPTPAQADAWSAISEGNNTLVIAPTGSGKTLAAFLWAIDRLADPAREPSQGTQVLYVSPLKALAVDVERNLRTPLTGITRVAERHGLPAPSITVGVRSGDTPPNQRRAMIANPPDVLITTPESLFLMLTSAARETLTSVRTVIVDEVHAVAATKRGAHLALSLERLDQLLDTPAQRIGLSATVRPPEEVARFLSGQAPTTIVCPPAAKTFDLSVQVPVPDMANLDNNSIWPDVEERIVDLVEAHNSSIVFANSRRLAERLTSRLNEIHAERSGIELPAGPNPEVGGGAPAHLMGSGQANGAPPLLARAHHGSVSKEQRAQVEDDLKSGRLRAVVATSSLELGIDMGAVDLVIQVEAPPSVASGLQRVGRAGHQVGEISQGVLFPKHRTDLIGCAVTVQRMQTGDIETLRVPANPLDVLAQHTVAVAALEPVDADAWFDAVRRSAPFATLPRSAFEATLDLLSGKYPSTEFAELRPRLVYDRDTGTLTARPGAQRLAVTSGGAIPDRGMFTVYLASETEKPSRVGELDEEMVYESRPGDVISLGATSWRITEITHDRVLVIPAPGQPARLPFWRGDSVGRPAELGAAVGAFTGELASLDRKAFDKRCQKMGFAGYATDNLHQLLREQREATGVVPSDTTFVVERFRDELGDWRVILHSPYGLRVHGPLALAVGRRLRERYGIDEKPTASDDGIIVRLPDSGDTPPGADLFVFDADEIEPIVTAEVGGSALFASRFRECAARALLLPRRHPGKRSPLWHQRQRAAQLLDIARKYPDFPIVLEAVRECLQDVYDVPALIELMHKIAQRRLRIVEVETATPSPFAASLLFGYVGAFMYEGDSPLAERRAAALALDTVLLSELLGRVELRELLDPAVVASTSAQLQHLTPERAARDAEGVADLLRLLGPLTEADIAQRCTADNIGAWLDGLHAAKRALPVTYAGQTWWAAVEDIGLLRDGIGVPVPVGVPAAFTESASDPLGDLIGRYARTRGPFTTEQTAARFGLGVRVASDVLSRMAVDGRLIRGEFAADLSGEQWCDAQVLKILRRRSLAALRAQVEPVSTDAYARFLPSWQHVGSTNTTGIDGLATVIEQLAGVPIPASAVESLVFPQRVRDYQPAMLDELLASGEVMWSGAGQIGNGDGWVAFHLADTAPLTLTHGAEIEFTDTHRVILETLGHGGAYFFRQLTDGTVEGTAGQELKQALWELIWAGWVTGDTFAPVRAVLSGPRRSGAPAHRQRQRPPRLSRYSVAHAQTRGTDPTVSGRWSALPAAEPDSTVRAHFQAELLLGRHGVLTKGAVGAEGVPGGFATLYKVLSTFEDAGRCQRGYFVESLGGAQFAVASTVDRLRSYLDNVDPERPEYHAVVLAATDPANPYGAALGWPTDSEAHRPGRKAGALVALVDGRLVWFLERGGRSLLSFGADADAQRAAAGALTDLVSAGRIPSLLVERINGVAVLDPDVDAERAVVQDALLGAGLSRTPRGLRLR

Molecular target: Mycobacterium smegmatis Lhr helicase (M. smegmatis) (UniProt A0QT91)
Assay: SEC; recombinant Lhr and Nei2 mixed in vitro, then gel filtration; conditions not given; both purified

B1: Mycobacterium smegmatis Nei2 (enzyme, UniProt A0QT90 1-252)
chain: MPEGDTVFHTAAALRAALEGKTLTRCDVRVPRYATVDLSGAVVDEVLSRGKHLFIRAGSASIHSHLKMEGAWRIGHTKVAPHRIRIVLETADTRAIGIDLGILEVLDRGTDMDAVAYLGPDLLGPDWEPRVAADNLAADPDRPLAQALLDQRVMAGVGNVYCNELCFVFGRLPTAPVGTLKDPLRVVQRARDMLWLNRSRWNRTTTGDTRNGRQLWVYGRAGEPCRRCGTLIQTDRGGERVTYWCPVCQTAS
- binding: no binding
